Data taken from the supplement of paper PMC10849652.
The list shows a part of the results.

The chains behind the UniProt entries cited, without tags or fusion partners. Where a name states a change or a piece, a line headed by the entry shows the natural chain unless it says otherwise.
UniProt Q9Y6R0: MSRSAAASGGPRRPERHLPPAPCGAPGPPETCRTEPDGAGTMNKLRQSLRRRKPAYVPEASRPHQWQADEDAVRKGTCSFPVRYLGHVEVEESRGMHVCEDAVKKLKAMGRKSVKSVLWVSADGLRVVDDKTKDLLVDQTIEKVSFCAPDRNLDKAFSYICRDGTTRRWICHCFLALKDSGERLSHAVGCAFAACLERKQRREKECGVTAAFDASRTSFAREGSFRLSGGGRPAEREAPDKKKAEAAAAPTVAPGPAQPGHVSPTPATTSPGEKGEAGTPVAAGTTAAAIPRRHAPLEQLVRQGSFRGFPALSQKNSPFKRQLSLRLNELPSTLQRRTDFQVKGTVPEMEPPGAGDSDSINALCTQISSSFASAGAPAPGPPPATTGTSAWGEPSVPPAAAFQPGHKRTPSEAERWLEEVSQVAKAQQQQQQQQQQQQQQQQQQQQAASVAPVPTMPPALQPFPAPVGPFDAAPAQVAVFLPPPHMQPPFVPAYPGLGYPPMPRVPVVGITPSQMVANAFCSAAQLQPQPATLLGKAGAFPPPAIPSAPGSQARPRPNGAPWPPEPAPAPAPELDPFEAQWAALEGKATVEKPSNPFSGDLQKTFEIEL
UniProt Q5SRE5: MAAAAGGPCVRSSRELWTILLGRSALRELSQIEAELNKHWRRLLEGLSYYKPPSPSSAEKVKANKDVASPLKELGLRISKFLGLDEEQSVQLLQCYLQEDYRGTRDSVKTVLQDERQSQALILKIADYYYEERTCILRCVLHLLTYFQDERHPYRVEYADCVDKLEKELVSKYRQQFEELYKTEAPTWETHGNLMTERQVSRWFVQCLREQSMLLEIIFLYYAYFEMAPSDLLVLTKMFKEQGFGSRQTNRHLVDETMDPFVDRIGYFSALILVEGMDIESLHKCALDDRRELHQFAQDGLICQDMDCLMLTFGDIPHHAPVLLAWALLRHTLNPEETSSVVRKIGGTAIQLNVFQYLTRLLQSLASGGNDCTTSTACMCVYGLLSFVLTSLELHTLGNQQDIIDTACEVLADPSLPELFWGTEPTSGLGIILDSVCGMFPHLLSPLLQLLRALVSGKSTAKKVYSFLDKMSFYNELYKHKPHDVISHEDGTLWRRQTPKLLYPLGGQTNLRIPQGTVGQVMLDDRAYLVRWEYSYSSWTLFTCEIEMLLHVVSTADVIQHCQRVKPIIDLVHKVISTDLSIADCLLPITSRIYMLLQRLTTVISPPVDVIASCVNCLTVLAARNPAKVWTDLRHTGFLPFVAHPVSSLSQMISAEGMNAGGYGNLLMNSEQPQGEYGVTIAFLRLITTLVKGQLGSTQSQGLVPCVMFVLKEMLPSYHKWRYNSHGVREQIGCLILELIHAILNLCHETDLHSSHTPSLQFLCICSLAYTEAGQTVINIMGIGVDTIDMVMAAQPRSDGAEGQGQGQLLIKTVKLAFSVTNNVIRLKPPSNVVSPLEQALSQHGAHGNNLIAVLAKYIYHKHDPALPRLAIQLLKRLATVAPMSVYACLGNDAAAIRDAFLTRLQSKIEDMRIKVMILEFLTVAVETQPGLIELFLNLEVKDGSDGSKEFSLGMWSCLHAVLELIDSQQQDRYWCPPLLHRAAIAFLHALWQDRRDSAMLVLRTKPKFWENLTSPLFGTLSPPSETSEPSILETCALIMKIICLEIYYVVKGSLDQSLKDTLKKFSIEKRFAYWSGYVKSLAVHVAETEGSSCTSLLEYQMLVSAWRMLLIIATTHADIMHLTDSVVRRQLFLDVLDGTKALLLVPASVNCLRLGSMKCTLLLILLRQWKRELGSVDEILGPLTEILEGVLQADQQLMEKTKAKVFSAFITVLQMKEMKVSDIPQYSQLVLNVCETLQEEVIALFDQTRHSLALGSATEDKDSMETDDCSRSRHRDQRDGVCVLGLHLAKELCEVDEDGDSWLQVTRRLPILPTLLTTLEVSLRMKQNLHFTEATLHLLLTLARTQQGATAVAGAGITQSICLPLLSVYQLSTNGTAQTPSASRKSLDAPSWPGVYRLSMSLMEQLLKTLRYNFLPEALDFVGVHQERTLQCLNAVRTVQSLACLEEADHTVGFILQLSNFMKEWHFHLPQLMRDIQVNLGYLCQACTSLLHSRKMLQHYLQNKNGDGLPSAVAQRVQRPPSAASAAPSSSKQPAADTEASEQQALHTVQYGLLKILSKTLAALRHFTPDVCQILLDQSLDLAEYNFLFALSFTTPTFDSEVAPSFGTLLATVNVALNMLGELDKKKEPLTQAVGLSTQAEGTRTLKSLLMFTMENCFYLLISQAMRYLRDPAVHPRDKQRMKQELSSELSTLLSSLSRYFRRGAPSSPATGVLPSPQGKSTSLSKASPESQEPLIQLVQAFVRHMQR
UniProt Q8NE18: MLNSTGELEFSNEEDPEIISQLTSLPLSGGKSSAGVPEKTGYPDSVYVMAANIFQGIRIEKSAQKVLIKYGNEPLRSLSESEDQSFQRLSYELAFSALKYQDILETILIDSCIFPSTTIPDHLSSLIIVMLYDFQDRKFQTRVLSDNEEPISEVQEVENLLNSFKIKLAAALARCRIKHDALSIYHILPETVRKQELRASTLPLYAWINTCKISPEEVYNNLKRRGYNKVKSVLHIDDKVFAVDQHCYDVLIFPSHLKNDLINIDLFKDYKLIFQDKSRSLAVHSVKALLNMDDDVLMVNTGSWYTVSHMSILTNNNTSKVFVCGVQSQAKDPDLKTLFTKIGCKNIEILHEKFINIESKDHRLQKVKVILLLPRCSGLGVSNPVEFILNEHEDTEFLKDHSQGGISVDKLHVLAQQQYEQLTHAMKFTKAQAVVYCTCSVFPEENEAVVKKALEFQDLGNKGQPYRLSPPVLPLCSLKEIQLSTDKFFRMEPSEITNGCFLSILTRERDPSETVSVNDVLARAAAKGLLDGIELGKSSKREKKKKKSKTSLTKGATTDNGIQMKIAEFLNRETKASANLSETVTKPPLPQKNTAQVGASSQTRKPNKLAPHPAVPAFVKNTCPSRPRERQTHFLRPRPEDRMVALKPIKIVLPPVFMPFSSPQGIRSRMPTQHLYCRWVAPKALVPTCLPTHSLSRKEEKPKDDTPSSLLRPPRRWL
UniProt Q9BZD4: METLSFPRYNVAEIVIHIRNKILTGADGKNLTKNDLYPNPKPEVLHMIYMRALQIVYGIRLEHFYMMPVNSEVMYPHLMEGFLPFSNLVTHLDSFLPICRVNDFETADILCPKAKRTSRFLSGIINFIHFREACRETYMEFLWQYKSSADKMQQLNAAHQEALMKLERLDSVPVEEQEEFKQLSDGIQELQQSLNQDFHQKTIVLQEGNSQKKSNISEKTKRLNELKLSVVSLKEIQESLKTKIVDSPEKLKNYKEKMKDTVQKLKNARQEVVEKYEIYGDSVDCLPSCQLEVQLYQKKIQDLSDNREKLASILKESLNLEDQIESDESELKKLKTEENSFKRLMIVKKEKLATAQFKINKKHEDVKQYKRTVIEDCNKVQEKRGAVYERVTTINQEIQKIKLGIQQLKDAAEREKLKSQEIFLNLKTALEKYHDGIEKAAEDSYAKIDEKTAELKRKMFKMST
UniProt O15294: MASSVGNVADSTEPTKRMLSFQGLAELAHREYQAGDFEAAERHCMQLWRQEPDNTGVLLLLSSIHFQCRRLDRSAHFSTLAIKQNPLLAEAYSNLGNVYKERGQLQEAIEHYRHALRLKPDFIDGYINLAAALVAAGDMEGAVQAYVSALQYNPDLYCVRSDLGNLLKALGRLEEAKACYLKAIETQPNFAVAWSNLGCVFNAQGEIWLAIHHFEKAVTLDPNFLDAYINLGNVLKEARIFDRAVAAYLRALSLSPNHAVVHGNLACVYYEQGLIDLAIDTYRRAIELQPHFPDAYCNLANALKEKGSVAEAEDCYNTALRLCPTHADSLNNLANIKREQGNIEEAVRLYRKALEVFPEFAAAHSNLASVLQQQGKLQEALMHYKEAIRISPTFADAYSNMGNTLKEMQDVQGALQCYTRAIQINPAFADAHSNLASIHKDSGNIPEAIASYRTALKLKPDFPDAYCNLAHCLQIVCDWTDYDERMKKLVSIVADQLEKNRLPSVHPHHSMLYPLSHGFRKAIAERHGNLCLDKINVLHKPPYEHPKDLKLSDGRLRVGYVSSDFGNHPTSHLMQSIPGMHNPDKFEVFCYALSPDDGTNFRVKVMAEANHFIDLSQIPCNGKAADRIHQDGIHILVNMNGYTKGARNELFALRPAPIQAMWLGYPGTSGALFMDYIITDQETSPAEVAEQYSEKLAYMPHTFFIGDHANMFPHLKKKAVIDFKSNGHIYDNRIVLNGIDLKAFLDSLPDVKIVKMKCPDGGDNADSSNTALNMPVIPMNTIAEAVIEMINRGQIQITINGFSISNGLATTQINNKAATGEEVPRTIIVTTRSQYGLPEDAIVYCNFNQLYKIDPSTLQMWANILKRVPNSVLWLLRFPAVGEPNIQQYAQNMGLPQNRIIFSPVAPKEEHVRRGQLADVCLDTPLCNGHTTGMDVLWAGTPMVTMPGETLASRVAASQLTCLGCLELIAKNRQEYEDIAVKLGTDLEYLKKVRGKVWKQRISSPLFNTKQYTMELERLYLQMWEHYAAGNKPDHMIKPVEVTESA
UniProt P49902: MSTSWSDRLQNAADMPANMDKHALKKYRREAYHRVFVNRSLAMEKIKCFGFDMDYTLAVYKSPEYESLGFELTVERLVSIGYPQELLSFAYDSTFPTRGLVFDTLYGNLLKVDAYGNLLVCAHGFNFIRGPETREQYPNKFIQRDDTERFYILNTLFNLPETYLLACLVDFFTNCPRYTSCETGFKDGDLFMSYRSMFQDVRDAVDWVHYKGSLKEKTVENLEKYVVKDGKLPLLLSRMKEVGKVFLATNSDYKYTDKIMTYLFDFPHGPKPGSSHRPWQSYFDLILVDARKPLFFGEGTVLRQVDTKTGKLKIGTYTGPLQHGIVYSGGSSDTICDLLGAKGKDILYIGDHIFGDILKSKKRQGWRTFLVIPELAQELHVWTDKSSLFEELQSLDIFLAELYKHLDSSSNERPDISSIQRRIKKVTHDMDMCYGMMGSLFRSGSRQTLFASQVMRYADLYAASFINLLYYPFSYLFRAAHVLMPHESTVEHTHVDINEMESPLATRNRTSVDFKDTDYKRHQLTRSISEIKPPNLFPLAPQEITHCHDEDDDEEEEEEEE

Legend:
Experiment in all cases: log2 fold change, soluble protein after heating vs DMSO (PISA); higher = thermal stabilisation; K562 cells, 10 uM, 30 min; active = over 0.2 and 3.5 SD of the protein, either way, in both replicates (recomputed)
bafetinib = compound: Cc1ccc(NC(=O)c2ccc(CN3CC[C@H](N(C)C)C3)c(C(F)(F)F)c2)cc1Nc1nccc(-c2cncnc2)n1 [bafetinib]
Procedure, shortened: (§1)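 Quantification of soluble protein used TMTpro 16plex LC-MS/MS, with channel sums equalised. Samples were the supernatant after 21,000xg for 90 min of pooled aliquots from K562 cells (2×10^6 cells/mL) treated with 10 μM compound for 30 min, heated for 3 min over 48°C-58°C, and extracted in PBS with 0.5% NP-40 at 4°C. Values, from duplicates, describe thermal stability against control samples on a log2 fold-change scale.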

[1] = compound: Cc1cccc(CC(=O)N2CCc3c2ccc(-c2cn(C)c4ncnc(N)c24)c3F)n1
Procedure, shortened: as §1

nilotinib = compound: Cc1cn(-c2cc(NC(=O)c3ccc(C)c(Nc4nccc(-c5cccnc5)n4)c3)cc(C(F)(F)F)c2)cn1 [nilotinib]
Procedure, shortened: as §1

[2] = compound: Cc1nc(Nc2n[nH]c3c2CN(C(=O)N[C@H](CN(C)C)c2ccccc2)C3(C)C)c2sccc2n1
Procedure, shortened: as §1

dasatinib = compound: Cc1nc(Nc2ncc(C(=O)Nc3c(C)cccc3Cl)s2)cc(N2CCN(CCO)CC2)n1 [dasatinib]
Procedure, shortened: as §1

[3] = compound: Cc1ncc(-c2ccnc(Nc3ccc(S(C)(=O)=O)cc3)n2)n1C(C)C
Procedure, shortened: as §1

[4] = compound: Cn1cc(-c2ccc3c(c2)CCN3C(=O)Cc2cccc(C(F)(F)F)c2)c2c(N)ncnc21
Procedure, shortened: as §1

[5] = compound: Cn1cc(-c2ccc3nnc(C(F)(F)c4ccc5ncccc5c4)n3n2)cn1
Procedure, shortened: as §1

tipifarnib = compound: Cn1cncc1[C@@](N)(c1ccc(Cl)cc1)c1ccc2c(c1)c(-c1cccc(Cl)c1)cc(=O)n2C [tipifarnib]
Procedure, shortened: as §1

mubritinib = compound: FC(F)(F)c1ccc(/C=C/c2nc(COc3ccc(CCCCn4ccnn4)cc3)co2)cc1 [mubritinib]
Procedure, shortened: as §1

[6] = compound: NC(=O)Nc1cc(-c2cccc(F)c2)sc1C(=O)N[C@H]1CCCNC1
Procedure, shortened: as §1

[7] = compound: NC(=O)c1cnc(N[C@@H]2CCCC[C@@H]2N)nc1Nc1cccc(-n2nccn2)c1
Procedure, shortened: as §1

[8] = compound: NC1(c2ccc(-c3nc4ccn5c(=O)[nH]nc5c4cc3-c3ccccc3)cc2)CCC1
Procedure, shortened: as §1

[9] = compound: NCC(=O)Nc1ccc(-n2nc(C(F)(F)F)cc2-c2ccc3c(ccc4ccccc43)c2)cc1
Procedure, shortened: as §1

entinostat = compound: Nc1ccccc1NC(=O)c1ccc(CNC(=O)OCc2cccnc2)cc1 [entinostat]
Procedure, shortened: as §1

vorinostat = compound: O=C(CCCCCCC(=O)Nc1ccccc1)NO [vorinostat]
Procedure, shortened: as §1

silmitasertib = compound: O=C(O)c1ccc2c(c1)nc(Nc1cccc(Cl)c1)c1ccncc12 [silmitasertib]
Procedure, shortened: as §1

[10] = compound: O=C1NC(=O)C(c2cnc3ccccn23)=C1c1cn2c3c(cc(F)cc13)CN(C(=O)N1CCCCC1)CC2
Procedure, shortened: as §1

citarinostat = compound: O=C(CCCCCCNC(=O)c1cnc(N(c2ccccc2)c2ccccc2Cl)nc1)NO [citarinostat]
Procedure, shortened: as §1

[11] = compound: c1cc(OCCN2CCCCC2)cc(-c2n[nH]c3ccc(-c4nnc[nH]4)cc23)c1
Procedure, shortened: as §1

Measured: log2 fold change

NUMBL (UniProt Q9Y6R0)
inactive: bafetinib -0.002 | [1] 0.113 | nilotinib -0.001 | [2] -0.136 | dasatinib -0.029 | [3] 0.027 | [4] 0.041 | [5] 0.097 | tipifarnib 0.068 | mubritinib 0.28 | [6] -0.101 | [7] 0.016 | [8] -0.154 | [9] 0.002 | entinostat 0.01 | vorinostat 0.078 | silmitasertib -0.037 | [10] 0.016

NUP188 (UniProt Q5SRE5)
inactive: bafetinib 0.043 | [1] 0.019 | nilotinib -0.06 | [2] -0.063 | dasatinib -0.125 | [3] 0.005 | [4] 0 | [5] -0.036 | tipifarnib -0.075 | mubritinib 0.037 | [6] -0.051 | [7] -0.056 | [8] -0.1 | [9] -0.082 | entinostat 0.072 | vorinostat 0.12 | citarinostat 0.078 | silmitasertib 0.015 | [10] 0.001 | [11] -0.027

NSUN7 (UniProt Q8NE18)
inactive: bafetinib 0.139 | [1] -0.628 | nilotinib -0.284 | [2] -0.003 | [3] 0.055 | [4] -0.023 | [5] -0.057 | tipifarnib 0.191 | mubritinib 0.025 | [7] -0.293 | [8] -0.056 | [9] -0.187 | vorinostat -0.159 | citarinostat -0.186 | silmitasertib 0.209 | [10] -0.084 | [11] -0.281

NUF2 (UniProt Q9BZD4)
inactive: bafetinib 0.206 | [1] -0.162 | nilotinib -0.051 | [2] -0.133 | dasatinib -0.08 | [3] -0.061 | [4] -0.094 | tipifarnib -0.079 | mubritinib -0.184 | [7] 0.043 | [8] 0.199 | [9] 0.148 | vorinostat 0.168 | silmitasertib 0.356 | [10] 0.183

OGT (UniProt O15294)
inactive: bafetinib 0.03 | [1] 0.041 | nilotinib 0.044 | [2] -0.055 | dasatinib -0.089 | [3] 0.03 | [4] 0.005 | [5] 0.036 | tipifarnib -0.095 | mubritinib 0.191 | [6] -0.024 | [7] -0.042 | [8] -0.094 | [9] -0.012 | entinostat 0.008 | vorinostat 0.042 | citarinostat 0.064 | silmitasertib 0.038 | [10] -0.03 | [11] -0.014

NT5C2 (UniProt P49902)
inactive: bafetinib -0.012 | [1] -0.038 | nilotinib 0.048 | [2] -0.029 | dasatinib 0.036 | [3] -0.013 | [4] 0.065 | [5] 0.024 | tipifarnib 0 | mubritinib 0.034 | [6] 0.061 | [7] 0.006 | [8] 0.009 | [9] 0.007 | entinostat -0.04 | vorinostat -0.003 | citarinostat 0.073 | silmitasertib -0.043 | [10] -0.011 | [11] 0.005

Two successive entries already listed:
NUP188 (UniProt Q5SRE5)
inactive: bafetinib 0.043 | [1] 0.019 | nilotinib -0.06 | [2] -0.063 | dasatinib -0.125 | [3] 0.005 | [4] 0 | [5] -0.036 | tipifarnib -0.075 | mubritinib 0.037 | [6] -0.051 | [7] -0.056 | [8] -0.1 | [9] -0.082 | entinostat 0.072 | vorinostat 0.12 | citarinostat 0.078 | silmitasertib 0.015 | [10] 0.001 | [11] -0.027

NSUN7 (UniProt Q8NE18)
inactive: bafetinib 0.139 | [1] -0.628 | nilotinib -0.284 | [2] -0.003 | [3] 0.055 | [4] -0.023 | [5] -0.057 | tipifarnib 0.191 | mubritinib 0.025 | [7] -0.293 | [8] -0.056 | [9] -0.187 | vorinostat -0.159 | citarinostat -0.186 | silmitasertib 0.209 | [10] -0.084 | [11] -0.281
